Consider two molecules from patent US20070184503A1.

By UniProt entry, the sequences of proteins in these tests, tags left out. Residues count along the entry.
UniProt P00004, residues 2-105: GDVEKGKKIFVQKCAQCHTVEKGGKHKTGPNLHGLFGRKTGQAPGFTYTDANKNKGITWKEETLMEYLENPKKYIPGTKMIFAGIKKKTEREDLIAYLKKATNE
UniProt P02769, residues 25-607: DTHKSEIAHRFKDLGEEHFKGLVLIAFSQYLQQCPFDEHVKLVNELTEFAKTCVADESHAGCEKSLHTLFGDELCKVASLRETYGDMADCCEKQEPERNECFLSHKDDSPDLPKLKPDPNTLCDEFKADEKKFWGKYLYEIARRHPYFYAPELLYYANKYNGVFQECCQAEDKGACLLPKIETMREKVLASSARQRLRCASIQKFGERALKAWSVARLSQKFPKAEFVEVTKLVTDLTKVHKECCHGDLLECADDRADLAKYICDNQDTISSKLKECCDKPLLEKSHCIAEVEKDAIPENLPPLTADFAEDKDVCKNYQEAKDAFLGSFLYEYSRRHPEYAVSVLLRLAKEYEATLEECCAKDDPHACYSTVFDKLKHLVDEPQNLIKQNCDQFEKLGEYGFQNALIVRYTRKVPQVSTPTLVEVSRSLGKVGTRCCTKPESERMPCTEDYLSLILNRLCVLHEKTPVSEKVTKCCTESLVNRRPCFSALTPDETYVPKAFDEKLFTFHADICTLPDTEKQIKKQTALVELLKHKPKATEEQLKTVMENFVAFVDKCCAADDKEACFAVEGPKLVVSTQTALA

These are yes or no findings as the source states them, for the method shown. Some results given as binding are weak or reduced against the parent protein; the word gives no strength.

Assay [1] concerns the target horse Cytochrome c (Cyt c) (horse) (UniProt P00004). The assay can be described thus: Adsorption on horse Cyt c-Affi-Gel 10, acid elution, SDS-PAGE.
Assay [2] has the same target. The experiment in a line: Adsorption of the human serum fraction on horse Cyt c-Affi-Gel 10, SDS-PAGE, MALDI-TOF MS.

As for “bovine serum albumin (BSA) (from UniProt P02769 25-607)”, in assay [1], the binding result is given as “binds”.

B1: hemopexin (protein, human, UniProt P02790 24-462, looked up)
chain: TPLPPTSAHGNVAEGETKPDPDVTERCSDGWSFDATTLDDNGTMLFFKGEFVWKSHKWDRELISERWKNFPSPVDAAFRQGHNSVFLIKGDKVWVYPPEKKEKGYPKLLQDEFPGIPSPLDAAVECHRGECQAEGVLFFQGDREWFWDLATGTMKERSWPAVGNCSSALRWLGRYYCFQGNQFLRFDPVRGEVPPRYPRDVRDYFMPCPGRGHGHRNGTGHGNSTHHGPEYMRCSPHLVLSALTSDNHGATYAFSGTHYWRLDTSRDGWHSWPIAHQWPQGPSAVDAAFSWEEKLYLVQGTQVYVFLTKGGYTLVSGYPKRLEKEVGTPHGIILDSVDAAFICPGSSRLHIMAGRRLWWLDLKSGAQATWTELPWPHEKVDGALCMEKSLGPNSCSANGPGLYLIHGPNLYCYSDVEKLNAAKALPQPQNVTSLLGCTH
As for B1, the binding entry in assay [2] was “binds”.
